{"source": "patent US20230077896A1", "about": "“MICROBIAL LIPID PRODUCTION UTILIZING POST-FERMENTATION INDUSTRIAL WASTE STREAM FEEDSTOCKS” (C16 Biosciences, Inc., priority 2020, published 2023)", "test": "LC-MS-MS quantification of inhibitor concentration in exemplary feedstock (corn stillage syrup)", "conditions": "[M + H]+, estimated from spiked standards"}
{"smiles": "O=Cc1ccc(O)cc1", "note": "[4-hydroxybenzaldehyde]", "values": [{"measurement": "Concentration range within exemplary feedstock", "value": "10 to 100", "unit": "µM"}]}
{"smiles": "NCC(=O)CCC(=O)O", "note": "[5-aminolevulinic acid]", "values": [{"measurement": "Concentration range within exemplary feedstock", "value": "10 to 200", "unit": "µM"}]}
